From patent US20070059632A1, “Method of manufacturing a semiconductor device” (priority 2003, published 2007)

Key:
[1] = Film-forming properties of radiation sensitive compositions; format: physicochemical; design: key: C: the resist film was whitened or its surface was roughened; B: partially whitened or partially roughened; A: the surface appeared good; conditions: 10% by weight solution in PGMEA spin-coated on silicon wafer, film about 0.2 μm, 3 min at about 110° C.
[2] = Adhesion to silicon substrate; design: key: A: the resist film formed in the evaluation 2 did not peel off the silicon wafer; B: did not peel off when a surface treating agent (silane coupling agent) was used; C: peeled off even when a surface treating agent was used; conditions: resist film on silicon wafer, without or with silane coupling agent

## CC(C)(C)OC(=O)Oc1ccc(C2(c3ccc(OC(=O)OC(C)(C)C)cc3)C(=O)c3cccc4cccc2c34)cc1 [Compound 8-4]
[1]
  (2) Film-forming properties: A
[2]
  (4) Adhesion to Si substrate: A

## CC(C)(C)OC(=O)Cc1cc(C(C)(c2ccc(OC(=O)OC(C)(C)C)c(OC(=O)OC(C)(C)C)c2)c2ccc3ccccc3c2)ccc1OC(=O)OC(C)(C)C (centres unmarked) [Compound 5-3]
[1]
  (2) Film-forming properties: A
[2]
  (4) Adhesion to Si substrate: B

## Cc1cc(C(C)(c2ccc(OC(C)OC3CCCCC3)c(C)c2)c2ccc3ccccc3c2)ccc1O (centres unmarked) [Compound 5-5]
[1]
  (2) Film-forming properties: A
[2]
  (4) Adhesion to Si substrate: A

## CC(C)(C)OC(=O)Oc1ccc(C2(c3ccc(OC(=O)OC(C)(C)C)c(OC(=O)OC(C)(C)C)c3)c3ccccc3-c3ccccc32)cc1OC(=O)OC(C)(C)C [Compound 7-1]
[1]
  (2) Film-forming properties: B
[2]
  (4) Adhesion to Si substrate: B

## CC(C)(C)OC(=O)Oc1ccc2c(c1)Oc1cc(O)ccc1C21c2ccccc2-c2ccccc21 [Compound 11-1]
[1]
  (2) Film-forming properties: A
[2]
  (4) Adhesion to Si substrate: A

## CCCCOC(=O)Oc1ccc2c(c1)Oc1cc(OC(=O)OCCCC)ccc1C2c1ccc(-c2ccccc2)cc1 [Compound 10-1]
[1]
  (2) Film-forming properties: A
[2]
  (4) Adhesion to Si substrate: B

## CC(C)(C)OC(=O)Oc1ccc(-c2cc(-c3ccc(OC(=O)OC(C)(C)C)cc3)cc(-c3ccc(OC(=O)OC(C)(C)C)cc3)c2)cc1 [Compound 14-4, reference compound]
[1]
  (2) Film-forming properties: B
[2]
  (4) Adhesion to Si substrate: C

## CC(C)(C)OC(=O)Cc1cc(C2(c3cc(OC(=O)OC(C)(C)C)c(OC(=O)OC(C)(C)C)c(OC(=O)OC(C)(C)C)c3)c3ccccc3-c3ccccc32)cc(OC(=O)OC(C)(C)C)c1OC(=O)OC(C)(C)C [Compound 7-3]
[1]
  (2) Film-forming properties: A
[2]
  (4) Adhesion to Si substrate: A

## O=C1c2cccc3cccc(c23)C1(c1ccc(O)cc1)c1ccc(OC2CCCCO2)cc1 (centres unmarked) [Compound 8-2]
[1]
  (2) Film-forming properties: A
[2]
  (4) Adhesion to Si substrate: A

## Cc1cc(C(C)(c2ccc(OC3CCCCO3)c(C)c2)c2ccc3ccccc3c2)ccc1O (centres unmarked) [Compound 5-6]
[1]
  (2) Film-forming properties: A
[2]
  (4) Adhesion to Si substrate: A

## Cc1cc(C(C)(c2ccc(OC(=O)OC(C)(C)C)c(C)c2)c2ccc3ccccc3c2)ccc1OC(=O)OC(C)(C)C [Compound 5-1]
[1]
  (2) Film-forming properties: A
[2]
  (4) Adhesion to Si substrate: A

## Cc1cc(C(C)(c2ccc(O)c(C)c2)c2ccc3ccccc3c2)ccc1O [Compound 14-5, 1-(2-naphthyl)-1,1-bis(3-methyl-4-hydroxyphenyl)ethane, reference compound]
[1]
  (2) Film-forming properties: A

## Oc1ccc(C2(c3ccc(OC4CCCCO4)cc3)Cc3cccc4cccc2c34)cc1 (centres unmarked) [Compound 8-1]
[1]
  (2) Film-forming properties: A
[2]
  (4) Adhesion to Si substrate: A

## CC(C)(C)OC(=O)Oc1cc(C2(c3ccc(OC(=O)OC(C)(C)C)c(OC(=O)OC(C)(C)C)c3)c3ccccc3-c3ccccc32)ccc1O [Compound 7-2]
[1]
  (2) Film-forming properties: A
[2]
  (4) Adhesion to Si substrate: A

## CC(C)(C)OC(=O)Oc1ccc(C(c2ccc(O)cc2)c2cccc3ccccc23)cc1 (centres unmarked) [Compound 5-9]
[1]
  (2) Film-forming properties: A
[2]
  (4) Adhesion to Si substrate: A

## CCOC(C)Oc1ccc(C2(c3ccc(O)c(-c4ccccc4)c3)Cc3cccc4cccc2c34)cc1-c1ccccc1 (centres unmarked) [Compound 8-5]
[1]
  (2) Film-forming properties: A
[2]
  (4) Adhesion to Si substrate: A

## CCOC(C)Oc1ccc2c(c1)Oc1cc(O)ccc1C21Cc2cccc3cccc1c23 (centres unmarked) [Compound 12-1]
[1]
  (2) Film-forming properties: A
[2]
  (4) Adhesion to Si substrate: A

## CC(C)(C)OC(=O)Oc1ccc(C(C)(c2ccc(O)cc2)c2ccc3ccccc3c2)cc1 (centres unmarked) [Compound 5-8]
[1]
  (2) Film-forming properties: A
[2]
  (4) Adhesion to Si substrate: A

## CC1(c2ccc3ccccc3c2)c2ccc(O)cc2Oc2cc(OC3CCCCC3)ccc21 (centres unmarked) [Compound 9-1]
[1]
  (2) Film-forming properties: A
[2]
  (4) Adhesion to Si substrate: A

## CCOC(C)Oc1ccc(C(C)(c2ccc(O)c(C3CCCCC3)c2)c2ccc3ccccc3c2)cc1C1CCCCC1 (centres unmarked) [Compound 5-7]
[1]
  (2) Film-forming properties: A
[2]
  (4) Adhesion to Si substrate: A

## CCOC(C)Oc1ccc(C2(c3ccc(O)c(C4CCCCC4)c3)Cc3cccc4cccc2c34)cc1C1CCCCC1 (centres unmarked) [Compound 8-3]
[1]
  (2) Film-forming properties: A
[2]
  (4) Adhesion to Si substrate: A

## CC(C)(C)OC(=O)Oc1ccc2c(c1)Oc1cc(OC(=O)OC(C)(C)C)ccc1C21c2ccccc2-c2ccccc21 [Compound 11-2]
[1]
  (2) Film-forming properties: B
[2]
  (4) Adhesion to Si substrate: B

## CC(C)(C)OC(=O)Oc1ccc(C(c2ccc(OC(=O)OC(C)(C)C)cc2)c2ccc(OC(=O)OC(C)(C)C)cc2)cc1 [Compound 14-3, reference compound]
[1]
  (2) Film-forming properties: A
[2]
  (4) Adhesion to Si substrate: C

## Cc1cc(C(C)(c2ccc(OC(=O)OC(C)(C)C)c(C)c2)c2ccc3ccccc3c2)ccc1O (centres unmarked) [Compound 5-2]
[1]
  (2) Film-forming properties: A
[2]
  (4) Adhesion to Si substrate: A

## Oc1ccc(C2(c3ccc(OC4CCCCO4)cc3)c3ccccc3-c3ccccc32)cc1 (centres unmarked) [Compound 7-4]
[1]
  (2) Film-forming properties: A
[2]
  (4) Adhesion to Si substrate: A

## CCOC(C)Oc1ccc2c(c1)Oc1cc(O)ccc1C21c2ccccc2-c2ccccc21 (centres unmarked) [Compound 11-3]
[1]
  (2) Film-forming properties: A
[2]
  (4) Adhesion to Si substrate: A

## Oc1ccc2c(c1)Oc1cc(OC3CCCCO3)ccc1C2c1ccc(-c2ccccc2)cc1 (centres unmarked) [Compound 10-2]
[1]
  (2) Film-forming properties: A
[2]
  (4) Adhesion to Si substrate: A

## CCOC(C)Oc1ccc(C(C)(c2ccc(O)c(C)c2)c2ccc3ccccc3c2)cc1C (centres unmarked) [Compound 5-4]
[1]
  (2) Film-forming properties: A
[2]
  (4) Adhesion to Si substrate: A

## O=C1c2ccccc2C(c2ccc(O)cc2)(c2ccc(OC3CCCCO3)cc2)c2ccccc21 (centres unmarked) [Compound 7-5]
[1]
  (2) Film-forming properties: A
[2]
  (4) Adhesion to Si substrate: A

## Oc1ccc(C(c2ccc(OC3CCCCO3)cc2)c2ccc(-c3ccccc3)cc2)cc1 (centres unmarked) [Compound 6-1]
[1]
  (2) Film-forming properties: A
[2]
  (4) Adhesion to Si substrate: A
